The subject of data set [1] is cardiomyocytes derived from iPS cells (Pluricyte) multicellular construct. The conditions noted are these: cumulative addition 0, 1, 10, 100, 1000 nM; 10 minutes after each addition; eighth day of the culture.
Data set [2] relates to human iPS cell derived cardiomyocyte multicellular construct. The conditions noted are these: 900 nM, 120 minutes after the addition, fourth day of the culture.
Data set [3] has as its system cardiomyocyte multicellular construct (human iPS cell derived cardiomyocytes). Description: Example 7: calcium imaging evaluation of response of cardiomyocyte multicellular construct against compound. The conditions noted are these: cumulative addition 1 to 1000 nM, seventh day of the culture. On the procedure:
Cells were seeded and cultured in the same manner as in Example 6, except that the cells were seeded such that the seeding amount per unit area of the scaffold was 6000 cells/mm^2.
On the sixth day of the culture, the cardiomyocyte multicellular construct was placed such that a surface containing more cells faced the bottom surface of a culture dish (IWAKI Multiwell Plate, Non-treated surface for suspension cell culture 6. Well), and was then left to stand for a day. On the seventh day of the culture, a calcium indicator (EarlyTox Cardiotoxicity Kit, Molecular Devices LLC) was added to the culture medium at a volume ratio of 25/100 to fluorescently stain calcium ions in the cardiomyocytes.
The fluorescence intensities in the entire 10-fold magnified visual fields of the obtained images were plotted versus time using an analysis software CellPathfinder, Yokogawa Electric Corp.), and thus signal waveforms of calcium ions in the cardiomyocytes were obtained. Verapamil is a Ca channel antagonist having an Ikr inhibitory effect.

Regarding `Cc1cccc(CCN2CCC(C(=O)c3ccc(NS(C)(=O)=O)cc3)CC2)n1` [Example E-4031], the “Membrane potential signal waveform” value in data set [1] is “prolonged waveforms”. Besides, in data set [2], the “Arrhythmia (beating behavior at measurement point B vs A)” value is “arrhythmia occurred” and the “Synchronous beating (calcium ion concentration changes at different sites)” value is recorded as “the synchronous beating was suppressed”. The “Concentration at which arrhythmia occurred” value in data set [3] is ≥ 100 nM.

Values taken from US20220389355A1, “CELL AGGREGATE, PRODUCING METHOD FOR MANUFACTURING CELL AGGREGATE, PRODUCING KIT FOR CELL AGGREGATE, AND CHEMICAL COMPOUND EVALUATING METHOD USING CELL AGGREGATE” (THE JAPAN WOOL TEXTILE CO., LTD., priority 2019, published 2022).
